{"source": "patent US7807617B2", "about": "“Peptide inhibitors of toxins derived from LL-37” (priority 2003, dated 2010)", "key": {"[1]": {"system": "neutrophils isolated from peripheral blood", "experiment": "Neutrophil chemotaxis, modified Boyden chamber", "assay_type": "cell-based", "conditions": "percentage neutrophils on the membrane compared to positive control 10^-8 M FMLP; 90 minutes", "procedure": "Neutrophils chemotaxis was measured with neutrophils isolated from peripheral blood using Percoll density centrifugation (density: 1.082 g/ml). The cells were resuspended at a concentration of 2.5×10^6 cells/ml in chemotaxis medium (20 mM N-2-hydroxyethylpiperazine-N′-2-ethanesulfonic acid (HEPES buffer) HEPES, 132 mM NaCl, 6 mM KCl, 1.2 mM KH2PO4, 1 mM MgSO4, 5.5 mM glucose, 0.1 mM CaCl2 and 0.5% (wt/vol) human serum albumin [Central Laboratory of the Netherlands Red Cross Blood Transfusion Service (CLB), Amsterdam, The Netherlands] diluted 1:1 with serum-free RPMI. The chemotactic activity of the compounds was assessed using a modified Boyden Camber technique. Briefly, 26 μl stimuli diluted in HEPES buffer was added to the wells of the lower compartment, and 50 μl of neutrophil suspension (2.5×10^6 cells/ml) was added to the upper compartment. The compartments were separated by two filters: a lower filter with a pore size of 0.45 μm (Millipore Products, Bedford, Mass.) and an upper filter with a pore size of 8 μm (Sartorius Filter, San Francisco, Calif.). […] To determine neutrophil chemotactic activity, neutrophils were counted in six random high-power fields (×400), and the percentage neutrophils on the membrane as compared to the positive control (10^-8 M N-formylmethionyl-leucyl-phenylalanine (FMLP, Sigma) was calculated."}, "[2]": {"system": "peripheral blood mononuclear cells (PBMC)", "experiment": "T cell proliferation ([3H] thymidine incorporation)", "assay_type": "cell-based", "conditions": "fraction of positive stimulation indices (positive: >2), 10 μg/ml, 5 days", "procedure": "The compounds prepared according to example 1 were tested for their therapeutically undesirable immunogenic activity by using Elispot, T-cell proliferation, ERK-activation, and neutrophil chemotaxis assays. The Elispot assay is applicable to determine effects of drugs, chemicals or other compounds on cytokine secretion in vitro, thereby providing data on their putative modulatory effects on immune function in vivo. The results of the assay are given as fraction of positive responses to IFN-gamma. […] Cytokines are direct mediators of inflammation and influence the progress and direction of many immunological reactions. […]\nFor T cell proliferation, 150,000 peripheral blood mononuclear cells (PBMC) were cultured in the absence or presence of 10 μg/ml of the compounds for 5 days in 96 well round bottom plates (Costar Inc. Cambridge, Mass.) in a final volume of 150 μl IMDM complete. […] During the final 20 hours of culture, PBMC were pulsed with [3H] thymidine (0.5 microCi/well), after which ^3H-incorporation was measured by liquid scintillation counting. […] Spots were counted on an Olympus microscope and analyzed with Olympus Micro Image 4.0 software (Paes Nederland, Zoeterwoude, The Netherlands). The final results are expressed as fraction of positive stimulation indices (positiv: >2)."}}, "note": "At least one peptide structure holds a part that was inferred or is arguable (an end, a ring closure or a residue). Marks after values point to notes of the source that are not given here.", "data": [{"substance": "Ac-IGKEFKRIVERIKRFLRELVRPLR-NH2 [Compound P60.4Ac]", "values": [{"measurement": "Chemotaxis (%)", "setting": "[1]", "result": "24* %"}, {"measurement": "T cell proliferation", "setting": "[2]", "result": "0/8"}]}]}
